# Data from PubChem BioAssay AID504467 (National Center for Advancing Translational Sciences (NCATS), 2011).
# About 7,700 (2.3%) of roughly 330,000 compounds were called active. This list was built around the results that the source calls inconclusive (neither active nor inactive); the mix of calls is not that of the screen. Calls come from the whole dose curve; as a rule, active = well fitted inhibition curve with a large enough effect; inconclusive = small, poorly fitted or top-dose-only effect, or effect the other way; inactive = flat fitted curve, though single readings scatter. Where the call is inconclusive, the potency comes from a doubtful curve fit.
# Experiment: qHTS screen for small molecules that inhibit ELG1-dependent DNA repair in human embryonic kidney (HEK293T) cells expressing luciferase-tagged ELG1; note: nearly all actives have a fitted effect of over 55% in size
# Details: HEK293T ELG1-luciferase reporter, luminescence, 16 h, DNA damage induced by 5-fluorouridine; series mostly up to 46.1 µM
# How it was run: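 Step one: seed 2,000 cells per well. Step two: pin-transfer compound or DMSO alongside 5-fluorouridine. Step three: incubate 16 hr, 37 °C, 5% CO2. Step four: add ONE-Glo, wait 30 min, read luminescence.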
# Potency is the fitted concentration of half-maximal effect.
row,Compound,Potency
1,COc1cccc(Nc2nnc(SCN3C(=O)c4ccccc4C3=O)s2)c1,"inconclusive: 14.6 µM [activator, partial curve]"
2,Cn1ncc(SCc2ccccc2)c(Cl)c1=O,active: 8.2 µM
3,Cc1cc(C)c2c(c1)c1nnc(SCCN3CCCCC3)nc1n2C,"inconclusive: 18.3 µM [activator, single point]"
4,O=c1c2ccccc2nc(-c2ccc(Cl)cc2Cl)n1CCCn1ccnc1,"inconclusive: 11.2 µM [activator, partial curve, poor fit]"
5,COc1ccc(CNC(=O)CCCOc2cc(=O)n(C)c3ccccc23)cc1,"inconclusive: 16.4 µM [activator, partial curve]"
6,CCCCc1ccc(NC(=S)NCc2ccc(OC)cc2)cc1,inactive
7,CSc1ccc(-c2nc(CSCC(=O)NC3CC3)c(C)o2)cc1,inactive
8,CC(C)C(=O)Nc1cccc(C(=O)Nc2ccc(S(=O)(=O)N3CCOCC3)cc2)c1,"inconclusive: 0.58 µM [activator, partial curve, poor fit]"
9,COc1ccc(NC(=O)CCC(=O)N/N=C/c2ccc([N+](=O)[O-])s2)cc1,"inconclusive: 14.6 µM [inhibitor, partial curve, poor fit]"
10,O=C(NCc1ccccn1)c1n[nH]c2ccccc12,"inconclusive: 14.6 µM [activator, partial curve]"
11,CCCn1c(N)c(N(CCOC)C(=O)CSCC(=O)Nc2ccc(C)cc2)c(=O)[nH]c1=O,inactive
12,COc1ccc(/C=C/C(=O)Nc2ccc(C34CC5CC(CC(O)(C5)C3)C4)cc2)cc1OC,"inconclusive: 2.91 µM [activator, partial curve]"
13,CN(CC(=O)Nc1ccc(C#N)cc1)Cc1ccc(Cl)cc1,inactive
14,CC1=CC2=NC(=O)/C(=C\c3cc(C)n(-c4ccc(F)cc4)c3C)C(=N)N2O1,inactive
15,Cc1ccc(/C=C2\SC(=S)N(CCC(=O)NNC(=O)c3cccnc3)C2=O)cc1,inactive
16,O=C(NCCc1csc(-c2cccnc2)n1)c1ccco1,"inconclusive: 20.6 µM [inhibitor, partial curve, poor fit]"
17,O=C(O)c1ccccc1SCc1csc(-c2ccccc2)n1,"inconclusive: 16.4 µM [activator, single point]"
18,Cc1ccc(NC2=C(Cl)C(=O)c3ccccc3C2=O)cc1,"inconclusive: 18.4 µM [activator, partial curve]"
19,O=C(CSc1nnc(NC(=O)c2ccccc2Cl)s1)NC1CC1,"inconclusive: 18.3 µM [activator, partial curve]"
20,O=C(CSc1nc2ccccc2c(=O)n1CCCN1CCOCC1)Nc1ccccc1OC(F)F,"inconclusive: 29.1 µM [inhibitor, single point]"
21,O=C(O)CC(C(=O)O)c1ccc(OCCCCOc2ccc(C(CC(=O)O)C(=O)O)cc2)cc1 (stereo not given),inactive
22,CN(C(=O)c1cccnc1)c1nnc(-c2ccccn2)s1,"inconclusive: 14.6 µM [activator, partial curve]"
23,COc1ccc(NC(=S)N(Cc2cccnc2)Cc2cc3cc(OC)c(OC)cc3[nH]c2=O)cc1,"inconclusive: 8.2 µM [inhibitor, partial curve, poor fit]"
24,Cc1cc2ncc(-c3ccccc3)nc2cc1C,"inconclusive: 2.91 µM [activator, full curve]"

# Filtered by structure: the compounds so far with a COOH group
row,Compound,Potency
17,O=C(O)c1ccccc1SCc1csc(-c2ccccc2)n1,"inconclusive: 16.4 µM [activator, single point]"
21,O=C(O)CC(C(=O)O)c1ccc(OCCCCOc2ccc(C(CC(=O)O)C(=O)O)cc2)cc1 (stereo not given),inactive

# Next part

row,Compound,Potency
1,CCNCC(=O)N1c2ccccc2CCc2ccc(NC(=O)OCC)cc21,inactive
2,O=C(NCc1nc2ccccc2[nH]1)C1=C[C@@H](c2ccc(Br)cc2)C[C@@H](OCc2ccc(CO)cc2)O1,inactive
3,COc1ccc2c(c1)CC/C(=C\c1ccc(C)o1)C2=O,"inconclusive: 6.51 µM [activator, partial curve]"
4,COc1ccc(S(=O)(=O)Nc2cc(Cl)ccc2-n2cncn2)cc1,inactive
5,Cc1nc(SCC(=O)N(C)Cc2ccco2)c2c(C)c(C)sc2n1,"inconclusive: 29.1 µM [inhibitor, single point]"
6,CC1CC(=O)N(CC(=O)Nc2ccc(F)cc2F)c2ccccc2S1(=O)=O (stereo not given),inactive
7,Cc1cccc(C)c1NC(=S)N(CCN(C)C)C(C)c1ccccn1 (stereo not given),inactive
8,COc1ccc(NC(=O)CCS(=O)(=O)c2ccccc2)c(OC)c1,"inconclusive: 16.4 µM [activator, single point]"
9,C=CCN1C(=O)/C(=C\c2ccco2)C(C(=O)OC)=C1C,inactive
10,COc1ccc(N=C2NC(=O)/C(=C/C=C/c3ccccc3)S2)cc1,inactive
11,COC(=O)c1ccc2nc(-c3cccc(N)c3)cn2c1,"inconclusive: 0.73 µM [activator, full curve]"
12,Cc1cc(CN(C)C(=O)c2cc(COc3ccc(C)c(C)c3)on2)on1,"inconclusive: 16.4 µM [activator, partial curve]"
13,CN(C(=O)c1cccc(NC(=O)C2CCCN(C(=O)OC(C)(C)C)C2)c1)C1CCCC1 (stereo not given),"inconclusive: 20.6 µM [inhibitor, partial curve]"
14,COc1cccc(NC(=O)COC(=O)c2ccco2)c1,inactive
15,Clc1cnc(N/N=C/c2cccs2)c(Cl)c1,"inconclusive: 29.1 µM [activator, single point]"
16,CCOc1ccc(NS(=O)(=O)c2ccc(NS(C)(=O)=O)cc2)cc1,"inconclusive: 25.9 µM [inhibitor, partial curve, poor fit]"
17,O=C(/C=C\c1cn(-c2ccccc2)nc1-c1cccs1)N1CCOCC1,active: 16.4 µM
18,CS(=O)(=O)c1nsc2nc(=O)c(/C=C3\C=Nc4ccccc43)c(N)n12,inactive
19,CCOc1ccc(-n2ccnc2SCC(=O)N2CCCc3ccccc32)cc1,"inconclusive: 29.1 µM [inhibitor, single point]"
20,Cc1nnc2ccc(N3CCC4(CC3)OCCO4)nn12,"inconclusive: 25.9 µM [activator, single point]"
21,O=c1[nH]c(=O)n(Cc2ccco2)c2c1C(C(F)(F)F)(C(F)(F)F)N=C(c1ccco1)N2,"inconclusive: 16.4 µM [activator, single point]"
22,Cc1ccc(S(=O)(=O)N2CCCCC2)c(C)c1NS(C)(=O)=O,inactive
23,CN(CC(=O)Nc1ccccc1Cl)C(=O)Cn1cnc2ccc(Cl)cc2c1=O,inactive
24,COc1ccc(C(=O)Nc2nnc(Cc3ccccc3)s2)c(OC)c1,inactive

# Reformatted bar-delimited: part of the list above.
row | Compound | Potency
18 | CS(=O)(=O)c1nsc2nc(=O)c(/C=C3\C=Nc4ccccc43)c(N)n12 | inactive
24 | COc1ccc(C(=O)Nc2nnc(Cc3ccccc3)s2)c(OC)c1 | inactive

# Continuation.

row,Compound,Potency
1,Cc1cc(/C=C2\SC(=S)N(Cc3ccco3)C2=O)c(C)n1-c1cccnc1,"inconclusive: 20.6 µM [activator, partial curve]"
2,Cc1cc(=O)n2c3ccccc3n(CC(O)CN3CCN(Cc4ccccc4)CC3)c2c1C#N (stereo not given),"inconclusive: 14.6 µM [inhibitor, partial curve, poor fit]"
3,CCOc1ccc(-n2c(SCC(=O)Nc3nccs3)nc3c(c2=O)SCC3)cc1,"inconclusive: 23.1 µM [activator, single point]"
4,CCOC(=O)C1(CC2CC2)CCN(Cc2cn(C)c3ccccc23)CC1,inactive
5,O=C(Nc1cccc(-c2nc3ccccc3s2)c1)c1cc(-n2cnnc2)ccc1Cl,"inconclusive: 29.1 µM [inhibitor, single point]"
6,COc1cc(/C=N/NC(=O)c2ccc(COc3cc(C)ccc3C(C)C)cc2)cc(OC)c1O,inactive
7,COc1ccc2c(Cn3cnc4cc([N+](=O)[O-])ccc4c3=O)cc(=O)oc2c1,"inconclusive: 6.51 µM [inhibitor, partial curve, poor fit]"
8,Cc1cccc(NC(=O)C2CCCN(C(=O)Nc3ccc(F)cc3)C2)c1 (stereo not given),inactive
9,O=S(=O)(N/N=C/c1ccc2c(c1)OCCO2)c1ccc(Cl)cc1,inactive
10,Cn1cc(C(=O)N/N=C/c2cccc([N+](=O)[O-])c2)c2ccccc21,inactive
11,O=C(NCCCNC(=O)c1ccco1)c1ccc(Cl)cc1,"inconclusive: 23.1 µM [activator, partial curve]"
12,CN(C(=O)c1cc(C(=O)N(C)c2ccccc2)cc([N+](=O)[O-])c1)c1ccccc1,"inconclusive: 1.26 µM [inhibitor, single point]"
13,Cc1csc(=O)n1CCC(=O)OCc1nnc(-c2ccc(Cl)cc2)o1,"inconclusive: 29.1 µM [activator, single point]"
14,CCNC(=S)Nc1ccc(OC(F)(F)F)cc1,"inconclusive: 25.9 µM [inhibitor, partial curve, poor fit]"
15,COc1ccc(-n2nc([N+](=O)[O-])c(=NCc3ccco3)n2O)cc1,"inconclusive: 8.2 µM [activator, partial curve]"
16,Nc1ncnc2nc(SCC(=O)Nc3cccc(C(F)(F)F)c3)[nH]c12,inactive
17,COc1cc(C(=O)Nc2cccc(-c3nnc(-c4ccco4)o3)c2)ccc1OC(C)=O,"inconclusive: 23.1 µM [inhibitor, single point]"
18,CCN(C(=O)COC(=O)/C(C#N)=C/c1ccc(N(C)C)cc1)C1CCS(=O)(=O)C1 (stereo not given),"inconclusive: 20.6 µM [activator, partial curve]"
19,O=C(NCC(=O)N1CCN(c2ccc([N+](=O)[O-])cc2)CC1)c1ccco1,"inconclusive: 7.3 µM [inhibitor, partial curve, poor fit]"
20,O=C(CSc1n[nH]c(-c2ccc(Br)cc2)n1)NC1CCCC1,"inconclusive: 25.9 µM [inhibitor, single point]"
21,COc1ccc(CCNC(=O)c2ccc(CS(=O)Cc3ccc(C)cc3)o2)cc1OC (stereo not given),"inconclusive: 8.2 µM [inhibitor, partial curve]"
22,CCn1c(=O)cc(OCC(=O)NCCCN2CCCC2=O)c2ccccc21,"inconclusive: 29.1 µM [activator, single point]"
